Binding data for two substances are collected here from patent US20120041175A1.

Amino acid sequences for entries named in this document (tags omitted). A change or cut given only in a name is not applied to a line headed by its entry.
UniProt Q14457: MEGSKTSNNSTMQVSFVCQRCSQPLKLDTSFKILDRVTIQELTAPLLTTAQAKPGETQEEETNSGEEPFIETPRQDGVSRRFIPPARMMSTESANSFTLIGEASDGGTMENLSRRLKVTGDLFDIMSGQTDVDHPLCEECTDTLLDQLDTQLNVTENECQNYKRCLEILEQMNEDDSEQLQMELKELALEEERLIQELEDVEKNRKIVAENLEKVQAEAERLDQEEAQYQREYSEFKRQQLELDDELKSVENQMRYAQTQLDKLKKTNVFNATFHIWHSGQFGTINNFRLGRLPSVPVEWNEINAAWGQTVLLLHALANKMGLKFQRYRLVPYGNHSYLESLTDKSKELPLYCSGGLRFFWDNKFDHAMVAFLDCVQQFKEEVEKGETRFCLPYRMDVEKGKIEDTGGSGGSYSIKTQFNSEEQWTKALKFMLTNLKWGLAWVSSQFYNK
UniProt Q8CDJ3: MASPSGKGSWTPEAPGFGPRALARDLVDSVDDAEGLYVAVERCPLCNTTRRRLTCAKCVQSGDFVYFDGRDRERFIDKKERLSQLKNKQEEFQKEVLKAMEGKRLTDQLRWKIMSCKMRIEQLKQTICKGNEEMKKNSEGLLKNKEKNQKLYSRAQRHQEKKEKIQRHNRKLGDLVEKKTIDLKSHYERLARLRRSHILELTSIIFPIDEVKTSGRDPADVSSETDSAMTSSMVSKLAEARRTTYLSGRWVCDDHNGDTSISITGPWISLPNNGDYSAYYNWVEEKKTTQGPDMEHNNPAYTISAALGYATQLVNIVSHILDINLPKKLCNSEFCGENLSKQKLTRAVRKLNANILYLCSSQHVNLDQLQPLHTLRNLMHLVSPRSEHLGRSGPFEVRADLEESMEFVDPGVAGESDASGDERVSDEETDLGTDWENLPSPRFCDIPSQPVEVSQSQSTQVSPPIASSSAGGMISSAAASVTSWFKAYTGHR
UniProt O88597: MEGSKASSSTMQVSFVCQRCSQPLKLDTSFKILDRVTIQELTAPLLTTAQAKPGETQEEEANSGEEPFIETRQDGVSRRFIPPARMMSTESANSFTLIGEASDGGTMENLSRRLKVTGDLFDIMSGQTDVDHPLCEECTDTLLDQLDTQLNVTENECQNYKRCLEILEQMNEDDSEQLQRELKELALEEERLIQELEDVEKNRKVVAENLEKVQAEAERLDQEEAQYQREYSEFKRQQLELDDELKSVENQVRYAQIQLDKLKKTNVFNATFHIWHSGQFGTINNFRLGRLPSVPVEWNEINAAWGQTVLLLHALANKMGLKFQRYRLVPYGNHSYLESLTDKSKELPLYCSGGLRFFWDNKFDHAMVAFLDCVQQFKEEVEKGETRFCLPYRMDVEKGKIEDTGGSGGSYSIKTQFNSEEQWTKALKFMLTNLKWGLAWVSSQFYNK

Results are given in words; binding and its absence hold for the method and conditions named. In cells and extracts the contact can be indirect. Some results given as binding are weak or reduced against the parent protein; the word gives no strength. For some of these results: Where a sequence is shown, tags or fusion partners need not be part of it.

For assay [1], the target named is endogenous Beclin 1 of HEK 293 / HEK 293T cells (human) (UniProt Q14457). Briefly: co-IP with anti-GFP antibody from transfected HEK 293T cells; anti-Beclin 1 blot.
For assay [2] the target is unchanged. Briefly: co-IP with anti-GFP antibody from transfected HEK 293T cells; anti-Beclin 1 blot of endogenous Beclin 1.
Assay [3] deals with T1, Rubicon-EGFP (full-length mouse Rubicon tagged with EGFP at the C-terminus) (mouse) (UniProt Q80U62).
T1 sequence: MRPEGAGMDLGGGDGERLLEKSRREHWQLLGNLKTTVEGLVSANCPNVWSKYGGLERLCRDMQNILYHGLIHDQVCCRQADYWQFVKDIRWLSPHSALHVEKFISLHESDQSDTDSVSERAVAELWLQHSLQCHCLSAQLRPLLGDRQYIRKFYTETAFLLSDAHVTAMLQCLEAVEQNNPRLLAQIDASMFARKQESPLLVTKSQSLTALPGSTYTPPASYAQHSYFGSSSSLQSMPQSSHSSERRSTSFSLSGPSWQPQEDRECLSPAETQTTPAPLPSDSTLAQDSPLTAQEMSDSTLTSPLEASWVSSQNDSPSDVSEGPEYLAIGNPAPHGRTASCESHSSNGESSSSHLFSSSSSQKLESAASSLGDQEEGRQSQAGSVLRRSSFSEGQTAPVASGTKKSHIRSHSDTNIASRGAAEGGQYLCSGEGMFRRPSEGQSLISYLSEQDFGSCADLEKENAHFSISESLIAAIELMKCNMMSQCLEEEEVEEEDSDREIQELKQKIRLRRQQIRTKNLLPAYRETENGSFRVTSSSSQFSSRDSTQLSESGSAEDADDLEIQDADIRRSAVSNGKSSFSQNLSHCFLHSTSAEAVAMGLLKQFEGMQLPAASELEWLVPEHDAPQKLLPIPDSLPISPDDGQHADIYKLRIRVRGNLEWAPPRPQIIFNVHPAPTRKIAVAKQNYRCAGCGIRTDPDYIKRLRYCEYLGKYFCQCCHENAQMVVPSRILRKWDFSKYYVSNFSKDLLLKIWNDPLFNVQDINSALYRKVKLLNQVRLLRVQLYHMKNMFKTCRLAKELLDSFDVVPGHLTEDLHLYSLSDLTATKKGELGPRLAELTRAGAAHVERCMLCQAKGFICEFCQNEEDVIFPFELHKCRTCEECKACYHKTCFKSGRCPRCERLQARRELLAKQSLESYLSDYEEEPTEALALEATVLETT
Briefly: refers to the co-IP of FIG. 2.

For assay [4], the target named is T1, Rubicon-EGFP (full-length mouse Rubicon tagged with EGFP at the C-terminus) (mouse). Briefly: co-IP with anti-GFP antibody from co-transfected HEK 293T cells; anti-FLAG blot.

As for “ATG14L ΔCCD1 mutant, EGFP-tagged (deletion of the N-terminal CCD1) (from UniProt Q8CDJ3 99-492)”, the binding result in assay [1] and in assay [2] was “binds” throughout.
With “FLAG-Beclin 1-CE (FLAG-tagged Beclin 1 mutant containing coiled-coil and evolutionarily conserved domains) (from UniProt O88597 144-448)”, the binding entry in assay [3] and in assay [4] was “binds” in each case.
